The assay addresses Runt-related transcription factor-2 (RUNX2) (UniProt Q13950). Kind of assay: co-IP; co-immunoprecipitation with endogenous and with overexpressed Smyd2; cells, bait and conditions not stated.

Protein sequences, listed by entry. Tags and fused reporters are not part of them.
UniProt Q13950: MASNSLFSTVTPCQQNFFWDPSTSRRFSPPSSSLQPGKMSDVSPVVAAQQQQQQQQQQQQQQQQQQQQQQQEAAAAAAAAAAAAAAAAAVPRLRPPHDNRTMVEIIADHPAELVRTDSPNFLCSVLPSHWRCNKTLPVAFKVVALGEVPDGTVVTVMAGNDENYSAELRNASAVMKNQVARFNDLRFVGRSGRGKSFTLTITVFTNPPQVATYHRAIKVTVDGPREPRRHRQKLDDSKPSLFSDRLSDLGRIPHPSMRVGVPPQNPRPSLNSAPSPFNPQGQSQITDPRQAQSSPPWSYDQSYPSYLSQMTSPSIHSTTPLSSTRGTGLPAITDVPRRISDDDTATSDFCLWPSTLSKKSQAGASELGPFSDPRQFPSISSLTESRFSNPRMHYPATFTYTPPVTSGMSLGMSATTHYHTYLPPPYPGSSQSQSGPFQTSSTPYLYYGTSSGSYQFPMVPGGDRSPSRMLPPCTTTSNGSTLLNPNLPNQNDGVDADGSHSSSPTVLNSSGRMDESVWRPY
UniProt Q9NRG4: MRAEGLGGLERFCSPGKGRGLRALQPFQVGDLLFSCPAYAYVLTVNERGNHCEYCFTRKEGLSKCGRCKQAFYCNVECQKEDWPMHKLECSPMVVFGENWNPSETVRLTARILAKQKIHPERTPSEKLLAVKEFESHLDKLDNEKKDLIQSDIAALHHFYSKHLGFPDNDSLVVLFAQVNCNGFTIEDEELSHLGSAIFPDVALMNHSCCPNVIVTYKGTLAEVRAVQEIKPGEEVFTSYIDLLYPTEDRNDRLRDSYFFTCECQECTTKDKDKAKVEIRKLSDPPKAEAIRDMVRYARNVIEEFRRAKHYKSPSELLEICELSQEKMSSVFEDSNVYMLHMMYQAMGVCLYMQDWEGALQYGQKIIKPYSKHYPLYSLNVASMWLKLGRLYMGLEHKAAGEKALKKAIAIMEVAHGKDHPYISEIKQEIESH

No constants are given. Whether binding was seen depends on the method and setting. In cells and extracts the contact can be indirect. Some binding calls cover weakened binding; strength is not graded here.

Consider “SMYD2 (SET and MYND domain-containing protein 2), overexpressed (from UniProt Q9NRG4 1-433) (enzyme)”, for which the binding result is reported as “binds”.

As to “SMYD2 (SET and MYND domain-containing protein 2), endogenous (from UniProt Q9NRG4 1-433) (enzyme)”, the binding entry is listed as “binds”.

(Values after publication PMC11925803.)
